Reference: the supplement of paper PMC12067093, “Discovery and optimisation of a covalent ligand for TRIM25 and its application to targeted protein ubiquitination” (Chemical Science, 2025)
The other results are listed elsewhere or left out.

Chains of the proteins cited; added tags and fusions are not shown. Lines headed by an entry give the natural chain unless they say otherwise; changes in a name come on top.
UniProt P50991: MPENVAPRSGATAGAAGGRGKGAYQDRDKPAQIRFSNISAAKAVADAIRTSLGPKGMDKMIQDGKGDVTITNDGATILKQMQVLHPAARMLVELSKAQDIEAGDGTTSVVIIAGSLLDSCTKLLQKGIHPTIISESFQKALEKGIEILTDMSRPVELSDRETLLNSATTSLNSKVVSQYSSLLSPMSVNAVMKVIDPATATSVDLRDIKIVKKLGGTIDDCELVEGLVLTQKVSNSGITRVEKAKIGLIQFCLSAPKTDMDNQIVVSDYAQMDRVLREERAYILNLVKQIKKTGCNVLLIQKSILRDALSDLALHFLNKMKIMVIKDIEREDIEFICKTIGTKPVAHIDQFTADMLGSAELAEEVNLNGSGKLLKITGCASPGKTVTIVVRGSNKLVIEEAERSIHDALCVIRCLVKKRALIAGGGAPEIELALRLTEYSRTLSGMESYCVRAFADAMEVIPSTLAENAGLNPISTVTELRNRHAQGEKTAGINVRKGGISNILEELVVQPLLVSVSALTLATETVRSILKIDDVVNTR
UniProt P49589: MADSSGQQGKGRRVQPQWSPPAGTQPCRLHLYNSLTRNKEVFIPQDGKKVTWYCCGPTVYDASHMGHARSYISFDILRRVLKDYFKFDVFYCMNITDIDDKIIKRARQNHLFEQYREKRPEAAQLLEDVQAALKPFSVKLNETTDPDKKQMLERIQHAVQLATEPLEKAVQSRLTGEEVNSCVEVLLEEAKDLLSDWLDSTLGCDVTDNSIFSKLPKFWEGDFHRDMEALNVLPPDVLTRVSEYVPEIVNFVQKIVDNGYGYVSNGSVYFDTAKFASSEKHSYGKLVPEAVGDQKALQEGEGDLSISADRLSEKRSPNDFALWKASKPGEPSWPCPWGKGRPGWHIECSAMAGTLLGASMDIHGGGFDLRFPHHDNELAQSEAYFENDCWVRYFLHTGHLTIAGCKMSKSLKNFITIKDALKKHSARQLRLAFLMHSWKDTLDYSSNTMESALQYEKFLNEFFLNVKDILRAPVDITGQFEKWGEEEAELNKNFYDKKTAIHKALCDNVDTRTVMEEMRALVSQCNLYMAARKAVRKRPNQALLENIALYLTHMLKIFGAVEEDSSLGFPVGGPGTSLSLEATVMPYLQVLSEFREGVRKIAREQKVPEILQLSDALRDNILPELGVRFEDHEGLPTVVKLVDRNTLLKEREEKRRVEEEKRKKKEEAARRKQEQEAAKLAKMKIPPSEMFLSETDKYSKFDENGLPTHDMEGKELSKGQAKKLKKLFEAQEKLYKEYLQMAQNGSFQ
UniProt P13501: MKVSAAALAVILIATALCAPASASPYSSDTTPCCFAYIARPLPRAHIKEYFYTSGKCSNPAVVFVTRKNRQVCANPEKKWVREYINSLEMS
UniProt Q96LW7: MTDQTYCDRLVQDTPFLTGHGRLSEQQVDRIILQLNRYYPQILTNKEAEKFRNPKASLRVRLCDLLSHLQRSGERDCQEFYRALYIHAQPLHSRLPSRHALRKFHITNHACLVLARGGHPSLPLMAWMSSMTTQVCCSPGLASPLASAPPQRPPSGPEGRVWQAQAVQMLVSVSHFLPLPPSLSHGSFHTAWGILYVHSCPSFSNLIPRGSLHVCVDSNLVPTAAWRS
UniProt Q01518, whole entry, looked up: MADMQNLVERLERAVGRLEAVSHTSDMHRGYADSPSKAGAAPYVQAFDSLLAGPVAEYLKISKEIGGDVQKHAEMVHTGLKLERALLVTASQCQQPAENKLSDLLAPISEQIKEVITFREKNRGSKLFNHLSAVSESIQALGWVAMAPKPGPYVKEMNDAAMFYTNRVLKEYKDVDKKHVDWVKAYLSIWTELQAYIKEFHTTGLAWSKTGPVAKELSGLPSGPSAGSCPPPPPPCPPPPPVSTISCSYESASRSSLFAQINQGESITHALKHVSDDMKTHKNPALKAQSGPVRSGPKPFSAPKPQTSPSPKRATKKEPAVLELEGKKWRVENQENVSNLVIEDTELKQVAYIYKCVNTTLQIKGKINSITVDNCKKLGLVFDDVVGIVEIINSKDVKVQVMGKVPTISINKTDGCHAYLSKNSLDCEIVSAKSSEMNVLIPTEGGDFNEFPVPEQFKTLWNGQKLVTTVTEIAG
UniProt P55210: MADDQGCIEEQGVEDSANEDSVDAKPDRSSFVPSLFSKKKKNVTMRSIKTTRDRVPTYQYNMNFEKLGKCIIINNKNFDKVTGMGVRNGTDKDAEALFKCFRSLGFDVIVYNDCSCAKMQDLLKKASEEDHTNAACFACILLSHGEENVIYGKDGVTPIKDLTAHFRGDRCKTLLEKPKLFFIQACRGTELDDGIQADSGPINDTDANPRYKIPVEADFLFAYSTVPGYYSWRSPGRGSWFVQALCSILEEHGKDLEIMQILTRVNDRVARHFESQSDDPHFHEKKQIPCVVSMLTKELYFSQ
UniProt P45973, whole entry, looked up: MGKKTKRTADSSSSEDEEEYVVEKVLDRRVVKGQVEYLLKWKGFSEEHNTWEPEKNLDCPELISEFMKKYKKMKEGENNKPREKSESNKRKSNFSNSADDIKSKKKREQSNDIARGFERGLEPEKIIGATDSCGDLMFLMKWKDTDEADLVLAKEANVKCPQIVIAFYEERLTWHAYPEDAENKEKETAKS
UniProt O60826, whole entry, looked up: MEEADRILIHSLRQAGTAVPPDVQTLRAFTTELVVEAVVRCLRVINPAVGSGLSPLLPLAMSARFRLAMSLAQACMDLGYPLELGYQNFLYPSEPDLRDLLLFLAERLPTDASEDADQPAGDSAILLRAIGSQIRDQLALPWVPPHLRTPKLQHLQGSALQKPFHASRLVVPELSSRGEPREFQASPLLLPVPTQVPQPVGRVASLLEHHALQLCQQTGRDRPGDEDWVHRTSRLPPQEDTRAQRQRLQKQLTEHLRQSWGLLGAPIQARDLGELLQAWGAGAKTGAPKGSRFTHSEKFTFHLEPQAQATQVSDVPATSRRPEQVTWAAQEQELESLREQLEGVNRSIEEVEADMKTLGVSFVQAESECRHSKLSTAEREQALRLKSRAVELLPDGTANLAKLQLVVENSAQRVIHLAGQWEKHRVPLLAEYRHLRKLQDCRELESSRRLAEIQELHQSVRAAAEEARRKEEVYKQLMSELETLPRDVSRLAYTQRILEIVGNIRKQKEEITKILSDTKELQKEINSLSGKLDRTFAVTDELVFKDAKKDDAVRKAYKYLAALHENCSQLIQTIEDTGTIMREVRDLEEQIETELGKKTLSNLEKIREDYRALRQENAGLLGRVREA
UniProt Q4VC31: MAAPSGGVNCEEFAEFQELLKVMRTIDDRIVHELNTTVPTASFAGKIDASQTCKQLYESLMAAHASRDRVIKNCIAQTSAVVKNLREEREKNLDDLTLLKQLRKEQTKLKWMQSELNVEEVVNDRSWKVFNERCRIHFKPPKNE
UniProt P29466: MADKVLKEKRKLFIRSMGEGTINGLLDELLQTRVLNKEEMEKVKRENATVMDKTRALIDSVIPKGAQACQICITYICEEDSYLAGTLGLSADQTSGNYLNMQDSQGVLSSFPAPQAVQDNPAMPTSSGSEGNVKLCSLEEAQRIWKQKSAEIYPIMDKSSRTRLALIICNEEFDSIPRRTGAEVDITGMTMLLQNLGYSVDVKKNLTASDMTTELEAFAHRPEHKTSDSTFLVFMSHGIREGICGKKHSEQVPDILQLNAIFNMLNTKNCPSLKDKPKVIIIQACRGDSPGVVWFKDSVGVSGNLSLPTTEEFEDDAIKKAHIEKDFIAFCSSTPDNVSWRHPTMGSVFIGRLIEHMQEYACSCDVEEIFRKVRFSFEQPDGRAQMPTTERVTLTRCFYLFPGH
UniProt O75808: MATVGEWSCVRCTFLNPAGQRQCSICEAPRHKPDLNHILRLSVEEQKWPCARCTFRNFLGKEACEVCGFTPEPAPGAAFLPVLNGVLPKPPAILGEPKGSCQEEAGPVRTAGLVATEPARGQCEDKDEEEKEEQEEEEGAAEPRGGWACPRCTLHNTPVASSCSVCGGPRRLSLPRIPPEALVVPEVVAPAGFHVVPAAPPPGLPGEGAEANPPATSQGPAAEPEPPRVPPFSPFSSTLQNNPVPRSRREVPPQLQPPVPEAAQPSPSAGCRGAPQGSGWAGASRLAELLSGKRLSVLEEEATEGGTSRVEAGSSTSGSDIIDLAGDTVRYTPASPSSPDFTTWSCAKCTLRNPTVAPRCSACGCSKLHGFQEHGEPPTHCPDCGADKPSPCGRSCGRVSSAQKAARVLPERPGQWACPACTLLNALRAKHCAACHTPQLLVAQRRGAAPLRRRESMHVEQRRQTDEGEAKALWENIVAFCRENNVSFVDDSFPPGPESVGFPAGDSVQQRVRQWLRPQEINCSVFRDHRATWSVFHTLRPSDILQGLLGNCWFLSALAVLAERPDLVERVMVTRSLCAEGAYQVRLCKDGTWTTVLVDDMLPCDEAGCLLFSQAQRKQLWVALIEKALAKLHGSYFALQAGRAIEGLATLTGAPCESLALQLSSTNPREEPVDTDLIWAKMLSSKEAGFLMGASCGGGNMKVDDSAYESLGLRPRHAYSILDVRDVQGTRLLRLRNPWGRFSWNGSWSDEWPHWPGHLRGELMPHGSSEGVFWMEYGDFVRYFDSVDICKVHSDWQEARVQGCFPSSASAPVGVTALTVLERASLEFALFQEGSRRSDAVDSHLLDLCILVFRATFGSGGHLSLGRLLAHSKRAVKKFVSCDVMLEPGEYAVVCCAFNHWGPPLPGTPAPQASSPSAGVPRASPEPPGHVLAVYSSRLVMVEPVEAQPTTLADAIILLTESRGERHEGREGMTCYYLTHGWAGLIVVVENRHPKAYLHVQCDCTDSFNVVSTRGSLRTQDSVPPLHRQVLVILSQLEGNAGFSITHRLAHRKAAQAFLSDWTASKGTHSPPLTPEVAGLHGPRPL
UniProt Q14790: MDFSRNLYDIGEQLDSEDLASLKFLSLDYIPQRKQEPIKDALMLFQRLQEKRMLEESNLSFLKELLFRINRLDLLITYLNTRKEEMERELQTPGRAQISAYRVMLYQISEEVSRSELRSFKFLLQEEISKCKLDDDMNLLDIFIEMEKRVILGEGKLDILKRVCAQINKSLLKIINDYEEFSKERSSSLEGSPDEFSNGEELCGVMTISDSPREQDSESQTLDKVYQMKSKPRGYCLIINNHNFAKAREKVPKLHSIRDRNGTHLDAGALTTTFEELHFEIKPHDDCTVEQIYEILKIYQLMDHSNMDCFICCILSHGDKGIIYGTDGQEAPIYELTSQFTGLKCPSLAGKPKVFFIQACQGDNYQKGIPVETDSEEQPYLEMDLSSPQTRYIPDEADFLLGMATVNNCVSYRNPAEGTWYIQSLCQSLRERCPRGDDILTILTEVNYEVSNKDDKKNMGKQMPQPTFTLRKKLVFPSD
UniProt Q86WR0: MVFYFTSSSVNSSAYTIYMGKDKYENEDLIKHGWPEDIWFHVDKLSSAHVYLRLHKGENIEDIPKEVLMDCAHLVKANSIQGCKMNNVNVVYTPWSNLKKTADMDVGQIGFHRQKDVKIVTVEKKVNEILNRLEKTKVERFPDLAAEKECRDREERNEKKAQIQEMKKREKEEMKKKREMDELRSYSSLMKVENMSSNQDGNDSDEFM
UniProt Q75N03: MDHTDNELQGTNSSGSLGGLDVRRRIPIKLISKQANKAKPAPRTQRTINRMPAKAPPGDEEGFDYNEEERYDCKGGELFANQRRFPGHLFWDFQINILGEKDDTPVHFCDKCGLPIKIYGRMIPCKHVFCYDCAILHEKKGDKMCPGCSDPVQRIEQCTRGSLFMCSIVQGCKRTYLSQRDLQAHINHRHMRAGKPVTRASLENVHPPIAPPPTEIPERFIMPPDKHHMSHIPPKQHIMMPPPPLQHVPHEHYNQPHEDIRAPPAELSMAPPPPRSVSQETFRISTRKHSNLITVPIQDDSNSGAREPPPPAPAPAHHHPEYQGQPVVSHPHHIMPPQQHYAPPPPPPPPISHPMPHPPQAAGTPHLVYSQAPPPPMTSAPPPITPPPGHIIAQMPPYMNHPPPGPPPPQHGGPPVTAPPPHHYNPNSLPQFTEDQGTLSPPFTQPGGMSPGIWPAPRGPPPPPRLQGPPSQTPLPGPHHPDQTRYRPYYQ
UniProt P78371: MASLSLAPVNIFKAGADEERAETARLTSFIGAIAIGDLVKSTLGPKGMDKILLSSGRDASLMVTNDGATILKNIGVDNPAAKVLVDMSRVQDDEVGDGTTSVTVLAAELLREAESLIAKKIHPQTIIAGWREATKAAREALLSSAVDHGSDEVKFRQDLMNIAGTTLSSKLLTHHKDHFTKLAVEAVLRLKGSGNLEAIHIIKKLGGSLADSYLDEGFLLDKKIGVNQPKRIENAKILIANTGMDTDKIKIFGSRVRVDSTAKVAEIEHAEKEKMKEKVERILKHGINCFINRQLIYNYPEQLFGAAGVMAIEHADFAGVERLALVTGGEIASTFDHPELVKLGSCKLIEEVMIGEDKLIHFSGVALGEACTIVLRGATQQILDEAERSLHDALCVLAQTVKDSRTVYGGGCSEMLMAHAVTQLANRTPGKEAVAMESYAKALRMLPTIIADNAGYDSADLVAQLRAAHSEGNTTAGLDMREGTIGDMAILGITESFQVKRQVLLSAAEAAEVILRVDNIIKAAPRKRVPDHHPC

Compound: Cc1cc(ccc1-c1ccccc1)C(=O)N1CCCN(CC1)C(=O)CCl [compound 10]
Assay: probe-labelled cysteine peptide fold change vs DMSO (competition) (log2 fold change); higher = less target engagement (more negative = stronger competition)
Conditions: THP-1, incubation time: 4 h
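Further: competitive profiling in live THP-1 cells: cysteine peptides tagged with an iodoacetamide desthiobiotin (IA-DTB) probe, intensity after compound treatment relative to DMSO-treated cells.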

Row | Target | probe-labelled cysteine peptide fold change (10 µM) | probe-labelled cysteine peptide fold change (50 µM)
1 | CCT4_P50991_221_LGGTIDDCELVEGLVLTQK (UniProt P50991) | -0.108 | 0.263
2 | CARS_P49589_27_RVQPQWSPPAGTQPCR (UniProt P49589) | -0.172 | -0.0916
3 | CCL5_P13501_57_CSNPAVVFVTR (UniProt P13501) | -0.208 | -0.165
4 | CARD19_Q96LW7_77_DCQEFYR (UniProt Q96LW7) | 0.0851 | 0.107
5 | CBR1_P16152_150_SCSPELQQK (UniProt P16152) | -0.0783 | -0.0457
6 | CARD19_Q96LW7_63_LCDLLSHLQR (UniProt Q96LW7) | 0.0672 | -0.0424
7 | CAP1_Q01518_416_VPTISINKTDGCHAYLSK (UniProt Q01518) | -0.167 | -0.3
8 | CCT3_P49368_398_NLQDAMQVCR (UniProt P49368) | 0.038 | -0.14
9 | CASP7_P55210_139_ASEEDHTNAACFACILLSHGEENVIYGK (UniProt P55210) | 0.0589 | 0.387
10 | CAPN7_Q9Y6W3_197_AHFPLGANPFLERPQSFISPQSCDAQGQR (UniProt Q9Y6W3) | 0.0575 | -0.193
11 | CARS_P49589_389_FPHHDNELAQSEAYFENDCWVR (UniProt P49589) | -0.0658 | 0.153
12 | CAP2_P40123_378_VNSIIIDNCKK (UniProt P40123) | 0.189 | 0.136
13 | CAPN1_P07384_590_GFSLESCR (UniProt P07384) | 0.0856 | -0.0349
14 | CCDC50_Q8IVM0_85_DLEQQDCEIAQEIQEK (UniProt Q8IVM0) | -0.212 | -0.214
15 | CBX5_P45973_133_IIGATDSCGDLMFLMK (UniProt P45973) | -0.0852 | 0.00313
16 | CCDC22_O60826_369_TLGVSFVQAESECR (UniProt O60826) | 0.0275 | 0.105
17 | CCDC58_Q4VC31_74_NCIAQTSAVVK (UniProt Q4VC31) | -0.312 | 0.374
18 | CAPZA2_P47755_157_KIDGQQTIIACIESHQFQAK (UniProt P47755) | 0.062 | -0.00567
19 | CASP1_P29466_270_NCPSLK (UniProt P29466) | -0.107 | -0.125
20 | CCDC58_Q4VC31_10_AAPSGGVNCEEFAEFQELLK (UniProt Q4VC31) | -0.613 | 0.41
21 | CAPN15_O75808_101_GSCQEEAGPVR (UniProt O75808) | -0.35 | -0.316
22 | CARD6_Q9BX69_637_NMEGLQAALQEVMFSSCLR (UniProt Q9BX69) | -0.0846 | -0.183

Complete entries, quoted from the list. Order of values: probe-labelled cysteine peptide fold change (10 µM)	probe-labelled cysteine peptide fold change (50 µM)
CCDC58_Q4VC31_10_AAPSGGVNCEEFAEFQELLK (UniProt Q4VC31) as listed: -0.613	0.41
CARD19_Q96LW7_77_DCQEFYR (UniProt Q96LW7) as listed: 0.0851	0.107
CASP7_P55210_139_ASEEDHTNAACFACILLSHGEENVIYGK (UniProt P55210) as listed: 0.0589	0.387
CBX5_P45973_133_IIGATDSCGDLMFLMK (UniProt P45973) as listed: -0.0852	0.00313

Additional records follow.

Row | Target | probe-labelled cysteine peptide fold change (10 µM) | probe-labelled cysteine peptide fold change (50 µM)
23 | CASP1_P29466_362_LIEHMQEYACSCDVEEIFRK (UniProt P29466) | 0.0559 | -0.385
24 | CASP6_P55212_113+116_IHEVSTVSHADADCFVCVFLSHGEGNHIYAYDAK (UniProt P55212) | 0.169 | -0.0859
25 | CCDC9_Q9Y3X0_233_CGLEHER (UniProt Q9Y3X0) | -0.251 | -0.831
26 | CAP1_Q01518_93_LERALLVTASQCQQPAENK (UniProt Q01518) | 0.451 | 0.00964
27 | CASP8_Q14790_345_CPSLAGKPK (UniProt Q14790) | -0.195 | -0.36
28 | CCT4_P50991_295_TGCNVLLIQK (UniProt P50991) | -0.0149 | 0.222
29 | CARS_P49589_405_YFLHTGHLTIAGCK (UniProt P49589) | 0.0479 | 0.0189
30 | CCDC25_Q86WR0_71_EVLMDCAHLVK (UniProt Q86WR0) | 0.138 | 0.173
31 | CCAR2_Q8N163_754_VVTQNICQYR (UniProt Q8N163) | -0.212 | -0.0838
32 | CBLL1_Q75N03_133_HVFCYDCAILHEK (UniProt Q75N03) | 0.137 | 0.0843
33 | CARM1_Q86X55_438_AGDTLSGTCLLIANK (UniProt Q86X55) | 0.0534 | 0.146
34 | CASP9_P55211_187_TGSNIDCEK (UniProt P55211) | -0.273 | -0.256
35 | CCDC186_Q7Z3E2_80_IEAQENYIPDHGGGEDSCAK (UniProt Q7Z3E2) | -0.135 | -0.0852
36 | CCT2_P78371_412_TVYGGGCSEMLMAHAVTQLANR (UniProt P78371) | 0.0056 | -0.00435
37 | CBX2_Q14781_89_KLTAMSSCSR (UniProt Q14781) | -0.0937 | -0.231
38 | CBLL1_Q75N03_172_GSLFMCSIVQGCK (UniProt Q75N03) | -0.0741 | 0.219
39 | CCDC86_Q9H6F5_127_CSQDQGVLASELAQNK (UniProt Q9H6F5) | 0.123 | -0.256
40 | CBFB_Q13951_124_LDGMGCLEFDEER (UniProt Q13951) | 0.00622 | 0.226
41 | CAPN15_O75808_9_ATVGEWSCVR (UniProt O75808) | 0.282 | 0.243
42 | CCT4_P50991_337_DIEREDIEFICK (UniProt P50991) | -0.0766 | 0.195
43 | CC2D1A_Q6P1N0_765_LDALEIACEVR (UniProt Q6P1N0) | 0.0115 | 0.276
